Earlier results, collected in patent US20090270496A1, “ANTIFUNGAL COMPOUNDS” (priority 2007, published 2009).

System: Gi protein in HL-60 membranes
Conditions: read-out: EC50, increase of high affinity GTP hydrolysis, Hageluken et al., 1995; cited from earlier work

CCCCc1oc2ccccc2c1C(=O)c1cc(I)c(OCCN(CC)CC)c(I)c1 [Amiodarone, amiodarone]
EC50: 7.5 µM
